Results: publication PMC10958042
No constants are given. Whether binding was seen depends on the method and setting. Binding seen in cells or lysates may run through a third protein. Some entries that bind do so weakly or less than the wild type. Where a sequence is shown, tags or fusion partners need not be part of it.

T1: Protein A-ATGL F348E (human) (UniProt Q96AD5)
T1 sequence: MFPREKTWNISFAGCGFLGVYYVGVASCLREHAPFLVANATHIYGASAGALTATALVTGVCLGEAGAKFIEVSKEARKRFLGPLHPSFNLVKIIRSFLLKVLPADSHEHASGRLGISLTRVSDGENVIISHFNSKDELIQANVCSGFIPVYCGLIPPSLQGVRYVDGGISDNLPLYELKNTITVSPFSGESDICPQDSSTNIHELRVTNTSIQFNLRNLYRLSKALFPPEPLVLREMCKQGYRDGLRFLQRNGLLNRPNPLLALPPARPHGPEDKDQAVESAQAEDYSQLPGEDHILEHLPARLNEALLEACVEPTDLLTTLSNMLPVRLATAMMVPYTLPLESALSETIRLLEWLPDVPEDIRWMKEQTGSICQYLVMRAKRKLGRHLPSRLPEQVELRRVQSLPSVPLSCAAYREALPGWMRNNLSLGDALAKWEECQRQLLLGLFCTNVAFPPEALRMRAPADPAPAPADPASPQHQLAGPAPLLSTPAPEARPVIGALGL

T2: Protein A-ATGL wild type (human) (human) (UniProt Q96AD5)
T2 sequence: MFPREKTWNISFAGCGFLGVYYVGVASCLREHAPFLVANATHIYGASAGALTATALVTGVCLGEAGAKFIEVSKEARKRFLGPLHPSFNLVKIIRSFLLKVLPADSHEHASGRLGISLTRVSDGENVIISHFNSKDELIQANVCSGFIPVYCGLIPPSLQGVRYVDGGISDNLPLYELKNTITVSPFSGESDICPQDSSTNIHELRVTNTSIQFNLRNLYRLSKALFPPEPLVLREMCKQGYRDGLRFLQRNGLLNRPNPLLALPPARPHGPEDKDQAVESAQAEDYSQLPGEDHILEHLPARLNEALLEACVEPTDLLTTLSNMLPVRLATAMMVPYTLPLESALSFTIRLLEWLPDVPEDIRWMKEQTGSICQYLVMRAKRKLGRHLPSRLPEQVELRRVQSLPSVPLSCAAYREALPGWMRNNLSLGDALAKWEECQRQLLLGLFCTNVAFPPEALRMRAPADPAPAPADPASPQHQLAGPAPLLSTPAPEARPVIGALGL

T3: Protein A-ATGL L62K (human) (UniProt Q96AD5)
T3 sequence: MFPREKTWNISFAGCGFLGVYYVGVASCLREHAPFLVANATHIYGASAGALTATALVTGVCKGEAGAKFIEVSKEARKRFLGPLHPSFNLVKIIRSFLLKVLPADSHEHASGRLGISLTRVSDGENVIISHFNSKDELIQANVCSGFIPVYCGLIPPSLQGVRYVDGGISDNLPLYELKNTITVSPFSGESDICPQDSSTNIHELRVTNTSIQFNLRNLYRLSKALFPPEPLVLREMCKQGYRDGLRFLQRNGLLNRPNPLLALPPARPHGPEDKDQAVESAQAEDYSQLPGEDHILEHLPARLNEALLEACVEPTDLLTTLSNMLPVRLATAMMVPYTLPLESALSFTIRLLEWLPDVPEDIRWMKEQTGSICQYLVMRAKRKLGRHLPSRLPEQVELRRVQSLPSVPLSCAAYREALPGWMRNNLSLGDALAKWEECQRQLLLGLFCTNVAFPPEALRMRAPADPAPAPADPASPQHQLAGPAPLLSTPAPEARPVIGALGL

T4: Protein A-ATGL L159A (human) (UniProt Q96AD5)
T4 sequence: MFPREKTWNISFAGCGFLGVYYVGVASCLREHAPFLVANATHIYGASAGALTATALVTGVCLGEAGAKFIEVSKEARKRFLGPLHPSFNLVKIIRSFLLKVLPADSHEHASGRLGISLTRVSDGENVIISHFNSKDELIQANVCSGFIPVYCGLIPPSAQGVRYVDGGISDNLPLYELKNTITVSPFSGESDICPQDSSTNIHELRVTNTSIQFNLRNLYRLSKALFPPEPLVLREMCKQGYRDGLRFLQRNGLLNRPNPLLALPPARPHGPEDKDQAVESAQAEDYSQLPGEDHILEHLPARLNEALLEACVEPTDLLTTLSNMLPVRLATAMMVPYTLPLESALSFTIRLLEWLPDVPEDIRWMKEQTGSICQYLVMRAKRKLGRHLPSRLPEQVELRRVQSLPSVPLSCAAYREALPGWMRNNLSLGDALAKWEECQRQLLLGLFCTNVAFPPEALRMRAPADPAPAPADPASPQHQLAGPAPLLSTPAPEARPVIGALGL


Legend:
Assay in all cases: co-IP; LUMIER luminescence-based co-immunoprecipitation: Protein A-ATGL variant and firefly-luciferase partner co-expressed in HEK293T, SDS-free RIPA2 lysate precipitated in IgG-coated plates 2 h at 4 °C, luminescence read; log2 fold change against wild-type ATGL, two experiments in triplicate
[1] = biological target: T1, Protein A-ATGL F348E (human)
[2] = biological target: T2, Protein A-ATGL wild type (human) (human)
[3] = biological target: T3, Protein A-ATGL L62K (human)
[4] = biological target: T4, Protein A-ATGL L159A (human)

Row | Binder | binding [1] | binding [2] | binding [3] | binding [4]
1 | G0S2 wild type, firefly-luciferase fusion (protein, UniProt P27469 1-103) METVQELIPLAKEMMAQKRKGKMVKLYVLGSVLALFGVVLGLMETVCSPFTAARRLRDQEAAVAELQAALERQALQKQALQEKGKQQDTVLGGRALSNRQHAS | binds | binds | – | –
2 | CGI-58 wild type, firefly-luciferase fusion (protein, UniProt Q8WTS1 1-349) MAAEEEEVDSADTGERSGWLTGWLPTWCPTSISHLKEAEEKMLKCVPCTYKKEPVRISNGNKIWTLKFSHNISNKTPLVLLHGFGGGLGLWALNFGDLCTNRPVYAFDLLGFGRSSRPRFDSDAEEVENQFVESIEEWRCALGLDKMILLGHNLGGFLAAAYSLKYPSRVNHLILVEPWGFPERPDLADQDRPIPVWIRALGAALTPFNPLAGLRIAGPFGLSLVQRLRPDFKRKYSSMFEDDTVTEYIYHCNVQTPSGETAFKNMTIPYGWAKRPMLQRIGKMHPDIPVSVIFGARSCIDGNSGTSIQSLRPHSYVKTIAILGAGHYVYADQPEEFNQKVKEICDTVD | – | binds | binds | –
3 | CIDEC wild type, firefly-luciferase fusion (protein, UniProt Q96AQ7 1-238) MEYAMKSLSLLYPKSLSRHVSVRTSVVTQQLLSEPSPKAPRARPCRVSTADRSVRKGIMAYSLEDLLLKVRDTLMLADKPFFLVLEEDGTTVETEEYFQALAGDTVFMVLQKGQKWQPPSEQGTRHPLSLSHKPAKKIDVARVTFDLYKLNPQDFIGCLNVKATFYDTYSLSYDLHCCGAKRIMKEAFRWALFSMQATGHVLLGTSCYLQQLLDATEEGQPPKGKASSLIPTCLKILQ | binds | binds | binds | binds

The remaining lines, values ahead:

Row | binding [1] | binding [2] | binding [3] | binding [4] | Binder
4 | binds | binds | binds | – | murine Plin5 wild type, firefly-luciferase fusion (protein, UniProt Q8BVZ1 1-463) MDQRGEDTTLAPHSRMSGDQTAQDPGSSLGELDQQNVVNRVVALPLVKATCTAVSSAYNSAKDRHPLLGSACRLAEHCVCSVTTCALDHAQPLLEHLQPQLATVNDLACRGLDKLEEKLPFLQQPSDMVVTSAKDTVAKSVTGMVDLAQRGRRWSGELRRSMSQAMDMVLGKSEKLVDRFLPMTEAELAVLAAEAEGPEVGTVEEQRQQQGYFVRLGSLSARLRHLAYEHSLGKLRQSKHRTQEMLAQLQETLELIQHMQRGASPSPTFHPPKTQELWGSWSPCLENGRSHSEVELETLALSRSLTLELQNAVDALAGCVRGLPPSAQAKVAEVQRSVDALQATFADAHCLGDVAPTALAEGRGSVARAHACVDEFLDLVLRAMPLPWLVGPFAPILVEQSEPLINLATCVDEVVGDPDPRWAHMDWPAQKRAWEAESADPGGQEAEPPRGQGKHTMMPELDF
5 | binds | binds | binds | – | murine Plin1 wild type, firefly-luciferase fusion (protein, UniProt Q8CGN5 1-517) MSMNKGPTLLDGDLPEQENVLQRVLQLPVVSGTCECFQKTYNSTKEAHPLVASVCNAYEKGVQGASNLAAWSMEPVVRRLSTQFTAANELACRGLDHLEEKIPALQYPPEKIASELKGTISTRLRSARNSISVPIASTSDKVLGATLAGCELALGMAKETAEYAANTRVGRLASGGADLALGSIEKVVEFLLPPDKESAPSSGRQRTQKAPKAKPSLVRRVSTLANTLSRHTMQTTAWALKQGHSLAMWIPGVAPLSSLAQWGASAAMQVVSRRQSEVRVPWLHNLAASQDESHDDQTDTEGEETDDEEEEEESEAEENVLREVTALPNPRGLLGGVVHTVQNTLRNTISAVTWAPAAVLGTVGRILHLTPAQAVSSTKGRAMSLSDALKGVTDNVVDTVVHYVPLPRLSLMEPESEFRDIDNPSAEAERKGSGARPASPESTPRPGQPRGSLRSVRGLSAPSCPGLDDKTEASARPGFLAMPREKPARRVSDSFFRPSVMEPILGRAQYSQLRKKS
